These are yes or no findings as the source states them, for the method shown. Binding seen in cells or lysates may run through a third protein. These calls come from enrichment with a bait or labelling near it, and not all partners need be listed. Sequences can lack the tags named with a protein.
Biological target: T1, STK11IP-GFP (mouse) (UniProt Q3TAA7)
T1 sequence: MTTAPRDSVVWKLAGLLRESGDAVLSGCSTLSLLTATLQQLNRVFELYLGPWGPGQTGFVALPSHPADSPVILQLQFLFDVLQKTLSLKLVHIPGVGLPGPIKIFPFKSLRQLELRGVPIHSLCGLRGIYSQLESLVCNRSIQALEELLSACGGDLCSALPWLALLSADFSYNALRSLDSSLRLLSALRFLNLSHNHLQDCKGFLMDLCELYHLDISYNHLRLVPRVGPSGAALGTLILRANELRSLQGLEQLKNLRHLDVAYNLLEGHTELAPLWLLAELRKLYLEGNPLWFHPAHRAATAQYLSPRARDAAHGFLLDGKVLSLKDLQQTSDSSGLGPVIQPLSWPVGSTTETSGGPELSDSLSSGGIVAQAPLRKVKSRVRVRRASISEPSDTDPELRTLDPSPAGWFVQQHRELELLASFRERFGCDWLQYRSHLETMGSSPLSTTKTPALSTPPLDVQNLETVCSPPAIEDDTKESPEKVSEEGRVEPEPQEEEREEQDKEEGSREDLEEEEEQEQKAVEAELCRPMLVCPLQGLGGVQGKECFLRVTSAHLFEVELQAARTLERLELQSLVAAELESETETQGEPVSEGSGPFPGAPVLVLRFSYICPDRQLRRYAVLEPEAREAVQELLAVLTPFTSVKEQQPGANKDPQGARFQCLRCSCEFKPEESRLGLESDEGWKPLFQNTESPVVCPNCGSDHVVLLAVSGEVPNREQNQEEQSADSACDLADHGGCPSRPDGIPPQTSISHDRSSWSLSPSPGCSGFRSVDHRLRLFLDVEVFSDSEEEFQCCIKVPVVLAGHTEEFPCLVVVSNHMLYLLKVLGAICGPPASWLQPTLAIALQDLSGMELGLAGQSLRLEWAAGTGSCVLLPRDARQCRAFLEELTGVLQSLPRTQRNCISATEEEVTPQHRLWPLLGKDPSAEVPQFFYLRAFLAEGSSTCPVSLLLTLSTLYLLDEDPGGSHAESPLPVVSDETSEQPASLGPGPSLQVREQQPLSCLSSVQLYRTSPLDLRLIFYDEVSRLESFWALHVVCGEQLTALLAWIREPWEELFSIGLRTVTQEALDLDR
Assay: affinity purification with mass spectrometry

B1: TMEM192 (endogenous) (protein, UniProt Q8IY95 1-271)
chain: MAAGGRMEDGSLDITQSIEDDPLLDAQLLPHHSLQAHFRPRFHPLPTVIIVNLLWFIHLVFVVLAFLTGVLCSYPNPNEDKCPGNYTNPLKVQTVIILGKVILWILHLLLECYIQYHHSKIRNRGYNLIYRSTRHLKRLALMIQSSGNTVLLLILCMQHSFPEPGRLYLDLILAILALELICSLICLLIYTVKIRRFNKAKPEPDILEEEKIYAYPSNITSETGFRTISSLEEIVEKQGDTIEYLKRHNALLSKRLLALTSSDLGCQPSRT
B1 was tested, and the binding was “binds”.

Reference: article doi:10.1101/2021.08.27.457973
